The results in this text go back to publication PMC3162612, “RssAB Signaling Coordinates Early Development of Surface Multicellularity in Serratia marcescens” (PLoS ONE, 2011).

Results are given in words; binding and its absence hold for the method and conditions named. A result given as binding can be weak or reduced; the word gives no strength. Tags and fused reporters may be left off the sequences shown.

The target in this assay is T1, GST-tagged RssB, pretreated with acetyl-phosphate (Serratia marcescens) (UniProt Q8GP20).
T1 sequence (chain, phosphorylated with acetyl-phosphate (RssB~P)): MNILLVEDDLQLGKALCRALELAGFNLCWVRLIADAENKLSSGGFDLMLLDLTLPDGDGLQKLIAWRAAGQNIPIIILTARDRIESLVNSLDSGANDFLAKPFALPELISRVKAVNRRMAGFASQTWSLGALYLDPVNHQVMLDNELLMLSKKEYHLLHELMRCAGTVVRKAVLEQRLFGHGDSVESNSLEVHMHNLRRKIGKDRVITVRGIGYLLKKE
Briefly: pull-down; GST, GST-RssB or GST-RssB D51E pretreated with acetyl-phosphate, incubated with His-cRssA and glutathione sepharose-4B in interaction buffer (20 mM Tris-HCl pH 7.5, 10 mM MgCl2, 100 mM KCl), 4°C 1 hr; washed; SDS-PAGE, Coomassie stain and anti-hexa-histidine blot; both purified.

“poly histidine-tagged cytoplasmic region of RssA (from UniProt Q8GP19) (domain or fragment)”: the binding entry is “binds”.
